PubChem BioAssay AID1259254 | NCATS | 2017

- Assay: 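Finding genes that stop cells copying their DNA twice in one cycle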 (primary screen)
- System: human HCT116 colorectal cancer cells
- Reagent: single siRNA against human genes
- Duration: 3 days
- Measured: 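Imaged Hoechst DNA stain sorts each cell into a cycle phase by DNA amount; per plate, G2 fraction set to 0% for non-targeting and 100% for GMNN siRNA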
- Direction: G2 robust z-score and G2 cells, % of GMNN control: higher = more G2 cells, more excess DNA replication; raw share of cells in G2: higher = larger share of cells with G2 DNA content
- Call rule: 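An siRNA counts as active if its G2 robust z-score lies at least 5 MADs above the screen median; here such calls match roughly 38% of GMNN control or more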
This is a random part of about 59,000 deposited reagents. About 1,550 of all reagents (2.6%) count as active. 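G2 share is only a proxy for re-replication; each gene was hit by three separate siRNAs, and active genes were retested.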 Raw values are not corrected between plates. Reagents against one gene are numbered here. The record does not give: the amount of reagent.

Gene,reagent,G2 robust z-score,"G2 cells, % of GMNN control",raw share of cells in G2 (%),call
S100A7,1,-0.103,2.24,4.35,inactive
S100A7,2,-0.32,0.716,5.18,inactive
S100A7,3,-0.926,-3.55,1.82,inactive
NBPF7P,1,0.241,4.66,5.59,inactive
NBPF7P,2,2.75,22.3,13,inactive
NBPF7P,3,2.13,18,11.4,inactive
LOC150935,1,0.506,6.53,6.02,inactive
LOC150935,2,-0.82,-2.8,2.05,inactive
LOC150935,3,0.125,3.85,4.41,inactive
CCDC51,1,-0.796,-2.63,3.35,inactive
CCDC51,2,-0.275,1.03,4.75,inactive
CCDC51,3,-0.671,-1.75,1.9,inactive
CDR2,1,1.29,12.1,8.25,inactive
CDR2,2,2.3,19.2,11.8,inactive
CDR2,3,0.275,4.91,6.78,inactive
NCAM1,1,-1.41,-6.94,0.906,inactive
NCAM1,2,1.65,14.6,11,inactive
NCAM1,3,-0.68,-1.81,4.75,inactive
CDON,1,-0.898,-3.35,2.51,inactive
CDON,2,0.643,7.49,9.35,inactive
CDON,3,1.59,14.2,9.48,inactive
LILRB5,1,-0.806,-2.7,2.97,inactive
LILRB5,2,-0.912,-3.45,4.2,inactive
LILRB5,3,-0.857,-3.06,5.27,inactive

Look-ups from the list:
LOC150935 #3, call → inactive
Entry of NCAM1 #1 in “call”: inactive

The listing continues:
Gene,reagent,G2 robust z-score,"G2 cells, % of GMNN control",raw share of cells in G2 (%),call
CRP,1,-0.155,1.88,4.21,inactive
CRP,2,-0.384,0.268,4.97,inactive
CRP,3,1.2,11.4,7.24,inactive
FTMT,1,7.73,57.4,27.1,active
FTMT,2,0.391,5.72,5.04,inactive
FTMT,3,-0.723,-2.12,1.2,inactive
LY6H,1,-0.00371,2.94,5.38,inactive
LY6H,2,1.05,10.4,7.11,inactive
LY6H,3,-0.585,-1.15,4.48,inactive
TMEM119,1,0.666,7.65,6.61,inactive
TMEM119,2,1.1,10.7,7.93,inactive
TMEM119,3,-0.244,1.25,4.69,inactive
PLEKHA3,1,0.433,6.01,7.2,inactive
PLEKHA3,2,-0.0424,2.67,5.81,inactive
PLEKHA3,3,-0.466,-0.315,2.61,inactive
LSM14A,1,2.28,19,11.6,inactive
LSM14A,2,-0.399,0.162,4.01,inactive
LSM14A,3,0.273,4.89,5.01,inactive
AIRE,1,0.534,6.72,7.99,inactive
AIRE,2,3.97,30.9,14.3,inactive
AIRE,3,0.338,5.35,5.58,inactive
CPNE9,1,-0.677,-1.8,3.23,inactive
CPNE9,2,-0.757,-2.36,2.18,inactive
CPNE9,3,0.199,4.37,4.59,inactive
